No constants are given. Whether binding was seen depends on the method and setting. Binding seen in cells or lysates may run through a third protein. Some binding calls cover weakened binding; strength is not graded here. Where a sequence is shown, tags or fusion partners need not be part of it.
Legend:
[1] = target: T1, GFP-Subito (full-length Subito, the Drosophila MKlp2, a kinesin-6) (Drosophila melanogaster) (UniProt Q9V877); test: co-IP; GFP-tagged protein immunoprecipitated with anti-GFP magnetic beads from Drosophila ovary lysate, in the absence of phosphatase inhibitors, 2 h at 4°C; immunoblots for Grip71 and γ-tubulin
T1 sequence: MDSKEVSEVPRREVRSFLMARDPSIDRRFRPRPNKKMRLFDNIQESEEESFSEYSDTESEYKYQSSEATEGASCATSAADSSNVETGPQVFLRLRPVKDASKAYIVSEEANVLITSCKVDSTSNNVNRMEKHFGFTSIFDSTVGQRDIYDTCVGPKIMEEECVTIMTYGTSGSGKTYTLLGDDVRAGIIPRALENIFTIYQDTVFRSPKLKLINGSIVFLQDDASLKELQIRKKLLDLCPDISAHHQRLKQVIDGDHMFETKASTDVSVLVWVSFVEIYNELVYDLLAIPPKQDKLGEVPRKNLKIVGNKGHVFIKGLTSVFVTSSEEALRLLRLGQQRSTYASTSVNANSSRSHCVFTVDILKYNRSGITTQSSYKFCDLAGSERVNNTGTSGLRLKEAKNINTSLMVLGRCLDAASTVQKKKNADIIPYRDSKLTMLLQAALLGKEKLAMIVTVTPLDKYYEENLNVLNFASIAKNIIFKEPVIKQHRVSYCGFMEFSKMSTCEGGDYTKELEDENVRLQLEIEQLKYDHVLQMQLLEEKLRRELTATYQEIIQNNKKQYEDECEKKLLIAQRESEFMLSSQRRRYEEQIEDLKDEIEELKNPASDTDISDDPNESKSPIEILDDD

[2] = target: T1, GFP-Subito (full-length Subito, the Drosophila MKlp2, a kinesin-6) (Drosophila melanogaster); test: co-IP; GFP-tagged protein immunoprecipitated with anti-GFP magnetic beads from lysate of ovaries co-expressing control (white) shRNA, in the presence of phosphatase inhibitors (1 µM okadaic acid, 10 mM p-nitrophenyl phosphate), 20 mM Tris-HCl pH 7.5, 50 mM NaCl, 0.5% Triton X-100, 1 h at 4°C; immunoblots for Grip71 and γ-tubulin
[3] = target: T2, GFP-SubitoΔN (Subito lacking the N-terminal 89 residues) (Drosophila melanogaster) (UniProt Q9V877); test: as above
T2 sequence: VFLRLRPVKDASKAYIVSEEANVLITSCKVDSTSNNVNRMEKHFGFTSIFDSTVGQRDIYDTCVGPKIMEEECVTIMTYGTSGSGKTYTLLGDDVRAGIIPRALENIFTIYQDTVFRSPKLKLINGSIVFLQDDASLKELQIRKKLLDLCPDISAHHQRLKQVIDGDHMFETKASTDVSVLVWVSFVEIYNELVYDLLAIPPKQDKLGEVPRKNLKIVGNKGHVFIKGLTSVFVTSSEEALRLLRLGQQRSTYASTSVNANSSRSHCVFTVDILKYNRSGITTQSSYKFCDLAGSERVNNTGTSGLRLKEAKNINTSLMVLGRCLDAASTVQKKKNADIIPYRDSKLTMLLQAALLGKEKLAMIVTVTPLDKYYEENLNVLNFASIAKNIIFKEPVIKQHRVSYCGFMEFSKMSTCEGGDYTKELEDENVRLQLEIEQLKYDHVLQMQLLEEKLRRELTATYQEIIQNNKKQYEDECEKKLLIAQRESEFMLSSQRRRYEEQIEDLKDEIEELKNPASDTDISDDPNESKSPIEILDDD

binding [1]: binds
binding [2]: binds weakly
binding [3]: binds
B1: Grip71/NEDD1, a component of the γ-tubulin ring complex (protein, UniProt Q9VJ57 1-646)
chain: MHVISTSKKTVLSDFADLETKSEYVHQNAEPTDFQFNGQRRVFVEVDKMAGLAVMRIKEKDGKTPEIQRVRKLTIDNAFCVACAKQSLEEIAVGQSGCVKLYNFRTAQLIHRFPADPQRSTVLYMDYNNTDEYIAAVRDGGDISILGTKTKQKTNTFTIDGDSTLVRFHPSKRFHLSIASYKGAVTVYDVQGMRKIFHASEAHSAPCRDISMCTSQPALLVSVGYDCKINIFDIRRNRAQASTDRLTYSHPLSTVALSECGTYLCAGNLKGELIAYDMRSTKAPLAVRSVHDAAVTRVAFVPVPSGDNQQNGSLNSSENATGLATEAPRVERAPSDELRKSIAANLLSTQNQLTSLGYGVSTPTIVRRDSFCEFLDAQGPRAVDRMSTRLGASYRDSFDWETLNRKPQPYETANRQSLCPPVASGPSSVDNSVNSSTTESLQQTLSGPLKDRSNISGDGKLMKIAETDELCEEQSANISVASSTGGGSDKENPPPVDAEMKRRLRLLSASRNSTPHHANITPQSSNPLLKPQQLLAKSSSGLSAQMDADWRKEFSELRDFVDQRCEKVERELEYVTFSNQRLLANKMTNYMDQQVENTREIRDALALLLQGDSFMREFSRLQNENEMLKAKLKFYQEQEQTESCGE

From publication PMC6168254
